A: 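Assay of Toxoplasma gondii numbers, read through their beta-galactosidase reporter with a colour substrate. Tested at 10 µM. The record gives no direction; the compounds picked for IC50 retests had high values, so higher reads as fewer parasites. About 67,000 compounds were tested under these conditions; 0.38% (about 260) showed 50% or more at least once.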
B: 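Polyketide synthase Pks13, Mycobacterium tuberculosis (UniProt I6X8D2). Enzyme assay of the thioesterase domain of polyketide synthase 13; the read-out is not stated. Concentration: 30 µM. The record gives no direction; the compounds picked for IC50 retests had high values, so higher reads as stronger inhibition. About 67,000 compounds were tested under these conditions; 0.46% (about 300) showed 50% or more at least once.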

Chains of the proteins cited; added tags and fusions are not shown.
UniProt I6X8D2, whole entry: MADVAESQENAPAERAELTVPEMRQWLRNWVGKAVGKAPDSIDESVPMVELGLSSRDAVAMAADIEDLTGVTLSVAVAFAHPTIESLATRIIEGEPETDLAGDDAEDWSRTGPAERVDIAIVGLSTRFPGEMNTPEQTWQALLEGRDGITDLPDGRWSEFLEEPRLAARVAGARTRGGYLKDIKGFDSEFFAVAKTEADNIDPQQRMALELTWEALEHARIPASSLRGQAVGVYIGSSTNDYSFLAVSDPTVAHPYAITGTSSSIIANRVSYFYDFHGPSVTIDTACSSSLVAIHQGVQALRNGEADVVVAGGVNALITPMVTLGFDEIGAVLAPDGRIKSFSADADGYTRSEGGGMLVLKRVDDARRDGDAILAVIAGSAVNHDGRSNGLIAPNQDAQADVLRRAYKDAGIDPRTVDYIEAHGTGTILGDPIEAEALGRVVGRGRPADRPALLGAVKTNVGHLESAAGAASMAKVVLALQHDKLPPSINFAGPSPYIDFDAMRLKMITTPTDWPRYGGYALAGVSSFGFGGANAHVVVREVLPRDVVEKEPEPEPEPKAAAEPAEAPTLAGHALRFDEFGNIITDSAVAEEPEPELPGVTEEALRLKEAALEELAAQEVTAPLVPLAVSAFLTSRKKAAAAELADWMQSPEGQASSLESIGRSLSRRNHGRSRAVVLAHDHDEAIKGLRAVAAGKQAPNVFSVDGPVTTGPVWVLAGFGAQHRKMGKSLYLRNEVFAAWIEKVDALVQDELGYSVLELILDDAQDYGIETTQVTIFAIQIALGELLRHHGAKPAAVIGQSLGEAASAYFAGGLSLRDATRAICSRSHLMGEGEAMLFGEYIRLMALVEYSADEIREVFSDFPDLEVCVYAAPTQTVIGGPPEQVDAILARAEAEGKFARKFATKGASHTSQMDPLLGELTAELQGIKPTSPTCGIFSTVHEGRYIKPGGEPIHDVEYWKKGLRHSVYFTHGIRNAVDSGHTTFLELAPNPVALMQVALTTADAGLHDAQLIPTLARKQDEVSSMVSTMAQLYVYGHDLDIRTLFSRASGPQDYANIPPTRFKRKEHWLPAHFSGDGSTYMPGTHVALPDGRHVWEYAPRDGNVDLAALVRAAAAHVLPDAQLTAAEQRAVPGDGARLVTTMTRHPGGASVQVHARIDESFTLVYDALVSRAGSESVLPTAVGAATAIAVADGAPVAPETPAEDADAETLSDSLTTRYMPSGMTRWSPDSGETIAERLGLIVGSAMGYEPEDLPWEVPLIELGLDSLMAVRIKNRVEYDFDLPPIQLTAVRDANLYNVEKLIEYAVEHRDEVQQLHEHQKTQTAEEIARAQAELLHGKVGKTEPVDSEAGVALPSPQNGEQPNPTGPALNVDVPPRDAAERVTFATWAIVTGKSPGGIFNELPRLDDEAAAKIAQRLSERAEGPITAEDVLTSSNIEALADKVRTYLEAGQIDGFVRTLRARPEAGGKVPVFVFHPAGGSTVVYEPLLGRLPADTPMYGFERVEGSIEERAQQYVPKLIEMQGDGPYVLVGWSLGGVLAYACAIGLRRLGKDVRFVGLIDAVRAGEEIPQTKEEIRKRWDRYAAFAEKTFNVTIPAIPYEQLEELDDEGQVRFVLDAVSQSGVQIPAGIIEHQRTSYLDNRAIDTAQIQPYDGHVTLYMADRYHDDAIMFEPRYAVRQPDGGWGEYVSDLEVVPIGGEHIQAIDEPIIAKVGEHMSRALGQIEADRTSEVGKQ

Results are given as percent effect.
The record does not define 0% and 100%; most values in the screen are far below 50% and negative numbers occur (in some assays of this library far below -100).
Compounds were drawn at random from those tested, without regard to their results.

With CN(CCN1CCOCC1)C(=O)CCc1cccc(Cl)c1 the screen gave A: -1.056%; B: -25%.
With Cc1ccccc1-n1cc(CNc2ncnc3c2CCNCC3)cn1 the screen gave A: 20.18%; B: 3.109%.
With Cc1cc(Nc2ccc(F)cn2)cc(C2CCN(Cc3ncc[nH]3)C2)n1 (centres unmarked) the screen gave A: 10.33%; B: -15.13%.
With Clc1ccc(N2CCN(CCCN3CCCCC3)CC2)nc1 the screen gave A: -4.735%; B: 1.329%.
With c1ccc2[nH]c(C3CCN(Cc4noc(C5CC5)n4)CC3)cc2c1 the screen gave A: -20.21%; B: -1.957%.
With CC(C)C[C@@H]1N[C@H](C(=O)NC2CCOCC2)Cc2c[nH]c3cccc1c23 the screen gave A: 15.76%; B: -31.24%.
With Cn1nccc1-c1ncc(-c2cc(C(=O)O)n(CC3CC3)c2)cn1 the screen gave A: 2.891%; B: -7.671%.
With O=C(O)C(F)(F)F.O=C(O)C(F)(F)F.[H][C@]12C[C@@H](CN3CCCC3)N(C)[C@@]1([H])CCN(C(=O)Cc1ccsc1)C2 the screen gave A: -19.5%.
With OCC1(CCOc2ccccc2)CCCN(c2ccc(Cl)cn2)C1 (centres unmarked) the screen gave A: -23.44%; B: 56.47%.
With Cn1cc(CN2CCC3(CC2)CN(C(=O)c2cnccn2)CCO3)cn1 the screen gave A: 18.49%; B: -15.04%.
With CCc1nc(CN(C)Cc2ncc(-c3cccs3)o2)cs1 the screen gave A: -5.114%; B: -12.31%.
With CCOC1COC2(CCN(S(=O)(=O)c3cccc(F)c3)CC2)C1 (centres unmarked) the screen gave A: 7.811%; B: 1.701%.
With CCn1ncc2c1C(COC)CN(c1ncc(F)cn1)C2 (centres unmarked) the screen gave B: -8.256%.
With O=S(=O)(NCCn1cc(C2CCOC2)nn1)c1ccc(Cl)cc1 (centres unmarked) the screen gave A: 1.429%; B: -6.352%.
With CC(C)[C@@H]1CN(C(=O)c2ccc3c(c2)CCCO3)C[C@H]1NS(C)(=O)=O the screen gave A: 0.194%; B: -16.35%.
With O=C1CC[C@H]2[C@H](CCN2C(=O)N2CCCC2)N1Cc1ccncc1 the screen gave B: 6.23%.
With CC(Cc1ccc2c(c1)OCO2)c1cn(CCN2CCCC2)nn1 (centres unmarked) the screen gave A: 0.2283%; B: -37.18%.
With CCC(O)CN1CCN(C(=O)c2cccc3c2OCC(=O)N3)CC1 (centres unmarked) the screen gave A: 10.74%; B: -14.87%.
With Cc1cccn2cc(CN3CCCC(O)C3)nc12 (centres unmarked) the screen gave A: 3.138%; B: -36.92%.
With CCCc1ccc(S(=O)(=O)NC2(CC(N)=O)CCC2)cc1 the screen gave A: -60.03%; B: -5.565%.
With Cn1nnnc1SCCC(=O)NCC1Cc2ccccc2O1 (centres unmarked) the screen gave A: 1.994%; B: -4.753%.
With COCCCN(C(=O)c1ccc(-n2ccnc2)cc1)C1CCN(C)CC1 the screen gave A: 0.7941%; B: -7.607%.
With O=C(O)C(F)(F)F.O=C(c1ccncc1F)N1Cc2nc(COCC3CC3)oc2C1 the screen gave A: 18.57%.
With COc1cccc(-c2cc(C(=O)NCCCn3nc(C)cc3C)[nH]n2)c1 the screen gave A: 2.192%; B: -17.85%.
With O=C1CCSCC(C(=O)N2CCC(O)CC2)N1 (centres unmarked) the screen gave A: -11.74%.
With Cc1cnn(CC2CCCN2C(=O)c2cn(-c3ccccc3)nc2C)c1 (centres unmarked) the screen gave A: -0.2872%.
With CCc1nc(CN2CCCN(C(=O)CCCOC)CC2)cs1 the screen gave A: -9.773%; B: -24.92%.
With COCCN(CC1CCCN(C2Cc3ccccc3C2)C1)C(=O)COC (centres unmarked) the screen gave A: -7.344%; B: -59.8%.
With [H][C@@]12CN(Cc3cccnc3)CCO[C@]1([H])CN(C(=O)c1ccncn1)C2 the screen gave A: 3.864%.
With O=C(CCC1CCCO1)NCc1ccccc1Cn1cncn1 (centres unmarked) the screen gave A: -46.93%; B: -2.171%.
With CC1(C)CN(C(=O)CC2CCS(=O)(=O)CC2)C[C@]1(C)O the screen gave A: 1.545%; B: -34.04%.
With CCOc1ccc(Cl)cc1CCNC(=O)Cn1nc(C)ccc1=O the screen gave A: -2.255%; B: -36.28%.
With CC(=O)NCCc1ccc(S(=O)(=O)Nc2ccc(C)c(F)c2)s1 the screen gave A: -1.206%; B: -4.339%.
With CCC1CN(CCCNS(C)(=O)=O)c2ccccc2O1 (centres unmarked) the screen gave A: -9.828%; B: -6.819%.

Measurements from “University of Dundee, Small-Polar-MMV Screening Library” (2021), ChEMBL document CHEMBL3988442.